# Library screen at single concentrations

Chains of the proteins cited; added tags and fusions are not shown. Residues count along the entry.
UniProt Q8IDJ8, 1-583: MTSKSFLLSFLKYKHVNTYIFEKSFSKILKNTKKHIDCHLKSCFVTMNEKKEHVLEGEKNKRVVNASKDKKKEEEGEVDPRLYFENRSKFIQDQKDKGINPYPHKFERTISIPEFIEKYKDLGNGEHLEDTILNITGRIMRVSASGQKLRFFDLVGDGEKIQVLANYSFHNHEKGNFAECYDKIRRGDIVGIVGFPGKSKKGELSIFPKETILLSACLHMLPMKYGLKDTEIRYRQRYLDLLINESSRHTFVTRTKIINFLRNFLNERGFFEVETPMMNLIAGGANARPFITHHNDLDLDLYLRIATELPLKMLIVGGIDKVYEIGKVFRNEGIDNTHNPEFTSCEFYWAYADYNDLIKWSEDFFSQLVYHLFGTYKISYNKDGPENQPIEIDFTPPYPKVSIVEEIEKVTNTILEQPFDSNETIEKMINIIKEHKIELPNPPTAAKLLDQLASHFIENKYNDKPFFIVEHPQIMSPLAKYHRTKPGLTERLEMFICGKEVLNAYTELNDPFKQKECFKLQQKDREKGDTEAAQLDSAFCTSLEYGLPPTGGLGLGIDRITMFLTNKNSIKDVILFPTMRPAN
UniProt A4I591, 1-473: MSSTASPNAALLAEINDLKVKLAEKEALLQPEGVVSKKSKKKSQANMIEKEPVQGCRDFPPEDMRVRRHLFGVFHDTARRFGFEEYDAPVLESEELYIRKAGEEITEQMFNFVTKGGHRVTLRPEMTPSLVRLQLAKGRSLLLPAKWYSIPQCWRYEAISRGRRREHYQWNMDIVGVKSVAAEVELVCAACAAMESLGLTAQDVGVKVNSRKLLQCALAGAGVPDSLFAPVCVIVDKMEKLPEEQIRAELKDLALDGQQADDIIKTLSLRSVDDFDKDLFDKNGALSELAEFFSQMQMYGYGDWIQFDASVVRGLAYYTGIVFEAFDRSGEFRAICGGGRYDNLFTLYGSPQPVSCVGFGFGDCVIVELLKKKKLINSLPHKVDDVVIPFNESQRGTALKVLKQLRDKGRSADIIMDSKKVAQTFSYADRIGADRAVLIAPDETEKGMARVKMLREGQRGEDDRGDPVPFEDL
UniProt Q4DA54, 1-478: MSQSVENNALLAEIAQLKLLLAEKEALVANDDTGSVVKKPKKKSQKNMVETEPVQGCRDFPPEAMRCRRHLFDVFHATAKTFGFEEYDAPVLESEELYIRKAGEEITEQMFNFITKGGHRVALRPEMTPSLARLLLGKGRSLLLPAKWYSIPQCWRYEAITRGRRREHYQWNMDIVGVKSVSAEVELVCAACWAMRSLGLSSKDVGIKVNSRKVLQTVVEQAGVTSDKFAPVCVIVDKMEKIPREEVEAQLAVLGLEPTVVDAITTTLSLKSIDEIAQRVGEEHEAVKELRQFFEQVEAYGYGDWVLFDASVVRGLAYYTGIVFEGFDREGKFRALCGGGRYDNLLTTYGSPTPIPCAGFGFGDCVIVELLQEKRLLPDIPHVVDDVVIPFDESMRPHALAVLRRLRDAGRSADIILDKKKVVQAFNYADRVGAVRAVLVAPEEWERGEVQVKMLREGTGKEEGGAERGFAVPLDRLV
UniProt P9WPC5, whole entry: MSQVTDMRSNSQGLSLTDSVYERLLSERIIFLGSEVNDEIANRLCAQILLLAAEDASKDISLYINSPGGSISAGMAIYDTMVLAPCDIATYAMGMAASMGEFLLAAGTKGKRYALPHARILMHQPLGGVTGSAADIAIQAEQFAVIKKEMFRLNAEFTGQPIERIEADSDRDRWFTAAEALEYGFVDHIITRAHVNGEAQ
UniProt P9WPC3, whole entry partner: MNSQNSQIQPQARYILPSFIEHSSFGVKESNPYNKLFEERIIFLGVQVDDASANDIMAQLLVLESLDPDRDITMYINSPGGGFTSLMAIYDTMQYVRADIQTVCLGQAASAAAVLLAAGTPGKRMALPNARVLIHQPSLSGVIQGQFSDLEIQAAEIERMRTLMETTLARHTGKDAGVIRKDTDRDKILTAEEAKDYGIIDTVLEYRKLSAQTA

PfKRS1: 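Enzyme assay of the cytosolic lysyl-tRNA synthetase in 384-well plates, read by luminescence. Target: Lysine-tRNA ligase, Plasmodium falciparum 3D7 (UniProt Q8IDJ8). Concentration: 30 µM. Higher reads as stronger inhibition, judged from the few compounds that gave an IC50. Size under these conditions: about 69,000 compounds, about 49 of them at 50% or above in at least one test.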
LiHisRS: 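Enzyme assay of histidyl-tRNA synthetase; the read-out is not stated. Target: Histidine-tRNA ligase, Leishmania infantum (UniProt A4I591). Tested at 30 µM. The record gives no direction; compounds that gave an IC50 in retests scored well above the rest, so higher reads as stronger inhibition. The assay is labelled LdHisRS but filed under L. infantum. About 69,000 compounds were tested under these conditions; 0.6% (about 410) showed 50% or more at least once.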
TcHisRS: 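Histidine-tRNA ligase, Trypanosoma cruzi CL Brener (UniProt Q4DA54). Enzyme assay of histidyl-tRNA synthetase; the read-out is not stated. Tested at 30 µM. The record gives no direction; compounds that gave an IC50 in retests scored well above the rest, so higher reads as stronger inhibition. About 69,000 compounds were tested under these conditions; 0.045% (about 31) showed 50% or more at least once.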
Leishmania in macrophages: 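Cell assay of Leishmania donovani living inside macrophages; the read-out is not stated. Compounds at 30 µM. Direction is inferred from retests: higher values go with stronger inhibition. Size under these conditions: about 69,000 compounds, about 1,000 of them at 50% or above in at least one test.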
ClpP1P2: 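ClpP1P2, Mycobacterium tuberculosis (UniProt P9WPC5 and UniProt P9WPC3). Protease assay of ClpP1P2, read by the AMC dye that it sets free. Compounds at 50 µM. Higher reads as stronger inhibition, judged from the few compounds that gave an IC50. Most other retested compounds had strongly negative values. About 69,000 compounds were tested under these conditions; 0.015% (about 10) showed 50% or more at least once.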

Results are given as percent effect.
How 0% and 100% were set is not recorded. Most values in the screen are low, and negative values occur.
The compounds are a random part of those screened.
Two or more numbers in one place are separate tests of the same structure; such repeats can differ widely.
A dash means the value is not listed here; it may have been measured.

| # | structure | PfKRS1 | LiHisRS | TcHisRS | Leishmania in macrophages | ClpP1P2 |
|---|---|---|---|---|---|---|
| 1 | `CN(Cc1cccnc1)[C@@H]1CN(Cc2nccn2C)[C@@H]2CCCO[C@H]12` | 1.085 | 0 | 2.857 | - | -14.47 |
| 2 | `CN(Cc1cnn(C)c1)C(=O)CCS(=O)(=O)c1ccc2c(c1)OCCO2` | 0.7604 | 4.938 | 5.521 | -33.16 | -7.474 |
| 3 | `COCC(C)(C#N)NC(=O)c1cn(-c2cccc(Cl)c2F)nn1` (configuration not stated) | -0.3777 | 0 | 2.484 | -11.78 | -13.88 |
| 4 | `Cc1cnc(CNC(=O)[C@@]23CCO[C@@H]2CCNC3)cn1` | 2.121 | 13.64 | 5.291 | - | -5.763 |
| 5 | `CN1CCC(N(C)CCC(=O)N2CCC(Oc3ccc(Cl)cc3)CC2)C1` (configuration not stated) | 4.659 | 25 | 25.97 | 4.609 | 5.862 |
| 6 | `Cn1c(N)c2c(=O)n(C)c(-c3ccc(Cl)cc3)cc2c(C#N)c1=O` | 5.51 | 17.24 | 8.247 | 27.13 | -37.2 |
| 7 | `Cc1nn(CC(=O)N2CCC3(CN(C)C(=O)O3)C2)c(=O)c2ccccc12` (configuration not stated) | 12.54 | 8.696 | 3.96 | 14.23 | 10.06 |
| 8 | `CN1CCC(N(C)c2ccccc2CNCc2ccco2)CC1` | 3.311 | 6.349 | -2.564 | 10.29 | -10.81 |
| 9 | `O=C(c1ccc[nH]1)N1CCc2ncc(Cn3cccn3)n2CC1` | 3.649 | 0 | -1.676 | 25.5 | -7.324 |
| 10 | `CN(C)C(C(=O)NCCn1cccc1)c1cccc(F)c1` (configuration not stated) | -0.2084 | 15.2 | 2.513 | 23.26 | -9.941 |
| 11 | `CCCc1cc(C(=O)NCCn2nc3ccccn3c2=O)[nH]n1` | 2.931 | 5.66 | 1.667 | 20.25 | -22 |
| 12 | `CCOCc1nc2c(c(N(C)Cc3snnc3C)n1)CCNCC2` | 0.04676 | 5.376 | 5.357 | -4.795 | -13.94 |
| 13 | `COCCN1C(=O)C2(CCC(C(=O)Nc3ccc(F)cc3)CC2)N=C1C` (configuration not stated) | -4.238 | 2.564 | 2.674 | 19.16 | 2.451 |
| 14 | `Cc1nc2c(c(C)c1CC(=O)NCc1cccs1)c(=O)[nH]n2C` | -0.01355 | 23.89 | 4.373 | 26.62 | -31.48 |
| 15 | `CN(C)CCCN1CC2(CCN(C3CCCOC3)CC2)OC1=O` (configuration not stated) | 0.3554 | 10.4 | -0.5025 | 15.14 | -6.601 |
| 16 | `NC(=O)c1cccc2nc([C@H]3CCN(Cc4ccccc4F)C3)[nH]c12` | 7.084 | 29.73 | -2.488 | 22.02 | -2.765 |
| 17 | `COc1nsc2nc(C3CCCN3c3ncccn3)ccc12` (configuration not stated) | 1.264 | 6.993 | 2.26 | -3.011 | 9.399 |
| 18 | `CCN1CCN(c2ccc(CNC(=O)c3ccccc3F)cn2)CC1` | -1.657 | 15.52 | 5.65 | 25.51 | -16.36 |
| 19 | `Cc1cc(C)n(CCCNC(=O)C2CCCO2)n1` (configuration not stated) | 0.6931 | 7.865 | 2.591 | 21.04 | -2.068 |
| 20 | `CCC(=O)Nc1cc(Br)cnc1OCC(F)(F)F` | 3.89 | 14.04 | 9.244 | 15.82 | 3.008 |
| 21 | `CCN1CCC2(CC1)CC(NC(=O)N(C)C)c1cc(C)ccc12` (configuration not stated) | 7.262 | 24.53 | -4.865 | - | -2.44 |
| 22 | `CCc1ccc(CN2Cc3nccn3CC(Cn3cncn3)C2)o1.O=C(O)C(F)(F)F` (configuration not stated) | - | - | - | 27.46 | - |
| 23 | `Cn1cccc1C(=O)NC(C)(C(N)=O)c1cccc(Cl)c1` (configuration not stated) | 5.774 | 17.28 | 3.067 | -48.02 | -11.81 |
| 24 | `CCCn1cnnc1CNCc1c[nH]nc1-c1ccc(F)cc1` | 2.366 | 10.45 | 4.255 | 7.556 | -4.217 |
| 25 | `CC(Cn1cccn1)NS(=O)(=O)Cc1ccccc1` (configuration not stated) | -2.408 | 14.14 | -3.743 | 3.432 | 6.403 |
| 26 | `O=C(Nc1ccnc(OC2CCOC2)c1)c1ccccc1Cl` (configuration not stated) | 3.521 | 23.29 | 5.911 | 19.07 | -13.86 |
| 27 | `O=C(Nc1nnc(C2CC2)s1)NC1CCOc2ccccc21` (configuration not stated) | -2.359 | 0 | 0 | -21 | 5.602 |
| 28 | `Cc1ccc(C(=O)N2CC[C@H](Oc3cccnc3C)[C@@H](O)CC2)s1` | 6.259 | 21.74 | 8.791 | 1.991 and 7.606 | 7.318 |
| 29 | `CC(C)NC(=O)c1cnc(Sc2nccn2C)c(Cl)c1` | -1.042 | -2.632 | 5.028 | -11.63 | 7.497 |
| 30 | `CN(CCCNc1cc(N2CCCC2CO)ncn1)S(C)(=O)=O` (configuration not stated) | -8.427 | 11.54 | 0.8264 | 15.97 | 10.98 |
| 31 | `COc1ccc(-c2ccnc3nc(N4CCCC4)[nH]c(=O)c23)cc1OC` | 6.279 | 13.79 | -1.775 | 26.43 | -136.8 |
| 32 | `CCc1n[nH]c(NC(=O)c2ccc(Cl)cn2)c1Br` | 3.527 | 20.72 | 8.333 | -22.78 | -3.474 |
| 33 | `CCOc1ccccc1-c1cc(N)[nH]n1` | -0.2094 | 12.08 | 3.143 | - | -17.06 |
| 34 | `Cn1nnn(-c2ccc(NS(=O)(=O)c3ccc(F)c(Cl)c3)cc2)c1=O` | -0.6451 | 10.43 | 0 | -4.007 and -5.326 | -6.569 |
| 35 | `CCC[C@@H]1CN(Cc2cc(OC)c3c(c2)OCO3)C[C@H]1C(=O)O` | 2.933 | 6.667 | 4.046 | 15.76 | -0.0764 |
| 36 | `O=C(c1cccs1)N1CCC(n2nc(-c3ccco3)ccc2=O)CC1` | 3.789 | 27.78 | 1.622 | 9.374 | -5.08 |
| 37 | `CN(C)c1cccc(C(=O)N2CCn3c(nnc3-c3ccccc3)C2)c1` | -3.941 | 14.29 | 3.896 | 3.878 | -3.859 |
| 38 | `N#CCC(=O)NCc1nnc2n1CCN(Cc1cccs1)C2` | 3.915 | 8.547 | 4.908 | 2.551 | 14.76 |
| 39 | `Cc1nn(C)cc1CN(Cc1ccccn1)Cc1ccccc1Cl` | 0.2906 | 5.634 | 3.077 | 29.11 | -19.75 |
| 40 | `CCC(O)CN1CCN(C(=O)CCSC)CC1` (configuration not stated) | -0.6236 | -1.961 | 0 | 29.81 | -0.6062 |
| 41 | `CCCc1cc(=O)n(CC(=O)NCCOC)c(-n2nc(C)cc2C)n1` | 4.198 | 20.22 | 13.57 | 15.2 | 6.411 |
| 42 | `O=C(c1cscn1)N1CCc2ncc(CN3CCCC3)n2CC1` | 4.849 | 14 | 7.216 | - | 1.333 |

Once more, the final 3:

CCC(O)CN1CCN(C(=O)CCSC)CC1 (configuration not stated) read PfKRS1: -0.6236%; LiHisRS: -1.961%; TcHisRS: 0%; Leishmania in macrophages: 29.81%; ClpP1P2: -0.6062%.
CCCc1cc(=O)n(CC(=O)NCCOC)c(-n2nc(C)cc2C)n1 read PfKRS1: 4.198%; LiHisRS: 20.22%; TcHisRS: 13.57%; Leishmania in macrophages: 15.2%; ClpP1P2: 6.411%.
O=C(c1cscn1)N1CCc2ncc(CN3CCCC3)n2CC1 read PfKRS1: 4.849%; LiHisRS: 14%; TcHisRS: 7.216%; ClpP1P2: 1.333%.

Measurements from “University of Dundee, Small-Polar-MMV Screening Library” (2021), ChEMBL document CHEMBL3988442.